Source: PMC9440176, “Novel benzylidene benzofuranone analogues as potential anticancer agents: design, synthesis and in vitro evaluation based on CDK2 inhibition assays” (3 Biotech, 2022)

Tests used:
[1] = test system: Cyclin A gene expression in HCT 116 cell lines; assay: Semi-quantitative RT-PCR gene expression of Cyclin A; type: cell-based, Human; conditions: internal control, Table 9
Procedure: (§1) HCT-116 cells were trypsinized and added to 1 ml TRIzol and vortexed. Samples were then allowed to stand for 5 min at room temperature. 0.2 ml of chloroform per 1 ml of TRIzol was added. The tube was later stoppered and shaken vigorously for 15 s and was allowed to stand at room temperature for 5 min. The resulting mixture was then centrifuged at 10,000×rpm for 15 min at […]. The upper aqueous phase was transferred to another clean tube followed by the addition of 0.5 ml of isopropanol per 1 ml of TRIzol. The contents were mixed gently by inverting the sample 5 times and incubated at room temperature for 5 min. Further, the tubes were centrifuged at 10,000×rpm for the next 10 min at 40 °C. […]
(§2) A semi-quantitative reverse transcriptase polymerase chain reaction (RT-PCR) was carried out using Techno Prime system to determine the levels of β-actin and CDK-2 and CyclinA mRNA expression. […]
(§3) The PCR mixture (final volume of 20 µL) contains 1 µL of cDNA, 10 µL of Red Taq Master Mix 2× (Ampliqon) and 1 µM of each complementary primer specific for CDK2 and CyclinA and β-actin (internal control) sequence. […] Quantification of the results could be accomplished by measuring the optical density of the bands, using the computerized imaging program Image J. The values were normalized to β-actin intensity levels (Bookout and Mangelsdorf [2003]).

[2] = test system: CDK2 gene expression in HCT 116 cell lines; assay: Semi-quantitative RT-PCR gene expression of CDK2; type: cell-based, Human; conditions: internal control, Table 8
Procedure: as §1, §2, §3

COc1ccc(/C=C2\Oc3c(c(OC)cc(OC)c3C3=CCN(C(C)C)CC3)C2=O)cc1OC [NISOA4]
Band intensity Of PCR Amplicon Of genes, β-Actin ([1]; 12.5 μM): 25,501.76
Band intensity Of PCR Amplicon Of genes, β-Actin ([1]; 25 μM): 25,292.08
Band intensity of PCR amplicon of genes, β-Actin ([2]; 12.5 μM): 25,501.761
Band intensity of PCR amplicon of genes, β-Actin ([2]; 25 μM): 25,292.075
